Measurements from PMC8175309, “Translational CNS Steady-State Drug Disposition Model in Rats, Monkeys, and Humans for Quantitative Prediction of Brain-to-Plasma and Cerebrospinal Fluid-to-Plasma Unbound Concentration Ratios” (The AAPS Journal, 2021).

Tests used:
[1] = cynomolgus monkey, in vivo
Method: Monkey experiments were conducted internally or at the Drug Safety Research Laboratories in Shin Nippon Biomedical Laboratories via consignment to Axcelead Drug Discovery Partners. […] Detailed dosage regimen for each compound is summarized in Supplemental Table 3. […] Each cassette was assigned to a separate group of monkeys. The vehicle was saline or a mixture of dimethylacetamide and 1,3-butanediol (1:1, v/v). At the end of the 6-h infusion or 1 h after intravenous bolus administration, the monkeys were anesthetized, and whole blood, CSF, and whole brain were collected. Blood was collected using the anticoagulant, heparin sodium, and immediately centrifuged; the plasma was transferred to polypropylene tubes. Then, ketamine hydrochloride (50 mg/mL; 0.2 mL/kg; 10 mg/kg) was intramuscularly administered. […] The residue was reconstituted in dilution solution (mobile phase A/B (7:3, v/v)), and the supernatant was analyzed by LC-MS/MS.
Each sample (50 μL) was mixed with the working solution (the mixture of dimethyl sulfoxide and acetonitrile (2:8, v/v)), and the protein was precipitated by adding 150 μL acetonitrile containing internal standards (5 ng/mL alprenolol and diclofenac). […] The residue was reconstituted in mobile phase A/B (7:3, v/v)), and the supernatant was analyzed by LC-MS/MS. […]

[2] = in vivo; cited from earlier work
[3] = in vivo; cited from earlier work; remark: listed apart in the source

SMILES: CCn1cc(C(=O)O)c(=O)c2cc(F)c(N3CCN(C)CC3)cc21 [Pefloxacin]
- Kp,uu,brain Monkey [1]: 0.452
- Kp,uu,brain Rat [2]: 0.199
- Kp,uu,CSF Human [3]: 0.743
